From PubChem BioAssay AID1508600 (Functional Genomics Laboratory (NCATS/FGL), 2020)
Hit rate of the full screen: of about 53,000 sequences, about 3,700 (7%) were called active.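 The calls were made as follows: active = gene knockdowns whose robust z-score for IL-1 alpha signal is at least 2 or at most -2, so actives lie on both sides; inactive = the rest.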 The list shows a part of the results.

Experiment: Components of the Cytosolic LPS Sensing Pathway: Gene Identification via Genome-wide siRNA Screen;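 also: robust z of the log signal after scaling to non-targeting control siRNA wells of the plate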
Details: RAW264.7 macrophages, IL-1a HTRF, actives lie on both sides, screened at 100 nM (by protocol), cells primed 5 h with Pam3CSK4 first
How it was run: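 IL-1a HTRF of supernatants after 24 hour LipidA transfection of Pam3CSK4-primed (5 hours) RAW264.7 cells, 48h post-siRNA transfection (100 nM). Scores: percent of plate negative-control median, then log-based robust z-score.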

**Q.** With GGAAAUCGUGCCUAGUCUGTT against Cdk3 as the sequence, how does the z-score read?
**A.** The z-score was inactive: 0.0204.

**Q.** For GGAAUGAUAUUCUUGUUUCTT against Klhl24, which z-score is on record?
**A.** The z-score was inactive: 0.834.

**Q.** With CCCUGAUAUAUACACAUACTT against Pofut1 as the sequence, how does the z-score read?
**A.** The z-score was inactive: -1.59.

**Q.** For CGUUAGCAGGAUGUUAAACTT against Ropn1, which z-score is on record?
**A.** Its z-score is inactive: -0.715.

**Q.** With GCACCUUUGACAGAAGAACTT against Ptf1a as the sequence, how does the z-score read?
**A.** Its z-score is inactive: 0.848.

**Q.** For GGUGUCCAGUCAAUAAGAGTT against Msx3, which z-score is on record?
**A.** Its z-score is inactive: -0.0298.

**Q.** Which z-score does the source give for GGGCCAUGCUAGAUUUGCUTT against Scamp1 here?
**A.** The z-score was inactive: -1.34.

**Q.** Which z-score does the source give for GCACAACAAGCGAUGUCAUTT against Myo9b here?
**A.** The z-score was active: -2.13.

**Q.** For GAUAUGUGCACAAUUCUGCTT against Vmn1r201, which z-score is on record?
**A.** Its z-score is active: -2.3.

**Q.** With GGAAGCAGGGCAGCUUAUUTT against Hbq1a as the sequence, how does the z-score read?
**A.** The z-score was active: -2.22.

**Q.** For GGUGACAAAAGUCUUUAACTT against Mkrn3, which z-score is on record?
**A.** The z-score was inactive: -1.41.

**Q.** For CCCUAGAAGAGCUCUGUUATT against Cts6, which z-score is on record?
**A.** Its z-score is inactive: 1.1.

**Q.** With GGAAGAAAAGGGAUAUCAGTT against Xirp1 as the sequence, how does the z-score read?
**A.** The z-score was inactive: 0.253.

**Q.** With GGACCAAGGGUUCAUAGCATT against Wdr35 as the sequence, how does the z-score read?
**A.** The z-score was inactive: -0.137.

**Q.** For GGAGAUCAUGAAGGAGCUATT against Tinagl1, which z-score is on record?
**A.** The z-score was inactive: 0.0227.

**Q.** Which z-score does the source give for CCGAGAAAUGGAAACUUAGTT against Pramel25 here?
**A.** Its z-score is inactive: 0.891.

**Q.** With GGUUUUUACAUCAUCUUGATT against Stom as the sequence, how does the z-score read?
**A.** The z-score was inactive: 1.9.

**Q.** For GCGGCAGUAAAUUGUGAGGTT against Grin3b, which z-score is on record?
**A.** Its z-score is inactive: 1.4.

**Q.** Which z-score does the source give for CGAUGAUUAACAUCUUACGTT against Scrn1 here?
**A.** Its z-score is inactive: -1.93.

**Q.** For CCUCUUUGGAAGAAUGCUGTT against Mapk11, which z-score is on record?
**A.** The z-score was inactive: -1.32.

**Q.** Which z-score does the source give for GCAGAUCUCCGAUUAUUUUTT against Doc2b here?
**A.** Its z-score is inactive: -0.0671.

**Q.** With GGAAAAUCAGCAUUUUGCCTT against Cdca3 as the sequence, how does the z-score read?
**A.** The z-score was inactive: -0.463.

**Q.** Which z-score does the source give for GGCCUCUGUCAUUUUAAAGTT against Tmem121 here?
**A.** The z-score was inactive: -1.63.

**Q.** For GGUACUUUCCUUUCGAUGCTT against Skint10, which z-score is on record?
**A.** The z-score was inactive: -0.524.

**Q.** Which z-score does the source give for GGGAUUUGAGCAUCUUUCCTT against Lrrc40 here?
**A.** The z-score was inactive: 0.571.

**Q.** Which z-score does the source give for GCUCAGUUUACCACACGAGTT against Arl11 here?
**A.** The z-score was inactive: -1.23.

**Q.** Which z-score does the source give for GGCGCGAAGUGUGAAUUUCTT against Megf10 here?
**A.** The z-score was inactive: 1.1.

**Q.** Which z-score does the source give for GCCUAGACCAGACACCAAATT against Prp15 here?
**A.** The z-score was inactive: -1.49.

**Q.** For GAGAAUAAUACCAUCUCCUTT against Olfr482, which z-score is on record?
**A.** Its z-score is inactive: 0.558.

**Q.** With GGAGGAAGAUUUUUUUGCUTT against Arfgap3 as the sequence, how does the z-score read?
**A.** Its z-score is inactive: 0.736.

**Q.** With GGUGCCCUAUGGAGAGAAATT against Serac1 as the sequence, how does the z-score read?
**A.** The z-score was inactive: -0.209.

**Q.** For CCAGUCAAAAGGAAAUGAATT against Dclre1a, which z-score is on record?
**A.** Its z-score is inactive: 0.421.

**Q.** For GGCGAUCCUUACUCCAAUGTT against Zfp90, which z-score is on record?
**A.** The z-score was inactive: 0.143.

**Q.** With CGGUUAGUCUGUCAGUAUCTT against Xrcc3 as the sequence, how does the z-score read?
**A.** Its z-score is inactive: 0.488.

**Q.** For GCGUGCUUUGAAGAGGUUGTT against Olfr298, which z-score is on record?
**A.** Its z-score is inactive: 0.759.

**Q.** With GGAAGAGCAGGCAUCCAUATT against Ranbp10 as the sequence, how does the z-score read?
**A.** The z-score was inactive: -0.294.

**Q.** For CCUGUAAGGUCUCUAGCAUTT against Exosc1, which z-score is on record?
**A.** Its z-score is inactive: 1.53.

**Q.** With CGAGAAGACCAUCAUCAUATT against Rbbp9 as the sequence, how does the z-score read?
**A.** Its z-score is inactive: -0.193.

**Q.** Which z-score does the source give for GGAGGCCACCAAAAUUAACTT against Kif17 here?
**A.** Its z-score is inactive: -0.914.

**Q.** For GGUCGAAGAGGAAGUAAACTT against Cd40lg, which z-score is on record?
**A.** The z-score was inactive: -0.438.

**Q.** With GGACUAUGUCUUUGACAAATT against Cdyl2 as the sequence, how does the z-score read?
**A.** Its z-score is inactive: -0.133.

**Q.** With CCCAUCAAUGCUGUUAAUUTT against Entpd5 as the sequence, how does the z-score read?
**A.** Its z-score is inactive: 0.128.

**Q.** Which z-score does the source give for GGACCAGGUCCGUUGGAAUTT against Efna1 here?
**A.** Its z-score is inactive: 0.636.

**Q.** With GCCUUUCUAUGCCCAGCAUTT against Ccdc117 as the sequence, how does the z-score read?
**A.** Its z-score is inactive: -0.0526.

**Q.** With GGUACCAUCACAGUGCGUCTT against Ip6k3 as the sequence, how does the z-score read?
**A.** Its z-score is inactive: 0.923.

**Q.** For GCAUUUUGUUGUGCUAUAGTT against Tmem255a, which z-score is on record?
**A.** Its z-score is inactive: -0.00422.

**Q.** Which z-score does the source give for GGGCCAACAGAAACAGAAGTT against Otp here?
**A.** Its z-score is inactive: -0.524.

**Q.** With GGUGCCGAACGUGUAAUUATT against Rarb as the sequence, how does the z-score read?
**A.** Its z-score is inactive: 0.936.

**Q.** For GGUGAAAAUACAUUGCCAGTT against Plk4, which z-score is on record?
**A.** Its z-score is inactive: -0.712.

**Q.** For GGAUAACCAAAGGAAUGUUTT against Cldn17, which z-score is on record?
**A.** Its z-score is inactive: -1.52.

**Q.** Which z-score does the source give for GGAAGGUUGUAAGUUUAAATT against Krtap14 here?
**A.** Its z-score is active: 2.12.

**Q.** Which z-score does the source give for GGGCAAAGAUCAAAGAGAUTT against Man1a here?
**A.** The z-score was inactive: -0.00191.

**Q.** Which z-score does the source give for GCAAACUUAUUACCAGGGATT against Shc3 here?
**A.** The z-score was inactive: 0.293.
